Experimental data as given in patent publication US20030198976A1.
Results are given in words; binding and its absence hold for the method and conditions named. Some binding calls cover weakened binding; strength is not graded here.

Protein sequences, listed by entry. Tags and fused reporters are not part of them. Lines headed by an entry give the natural chain unless they say otherwise; changes in a name come on top.
UniProt Q8TCW9: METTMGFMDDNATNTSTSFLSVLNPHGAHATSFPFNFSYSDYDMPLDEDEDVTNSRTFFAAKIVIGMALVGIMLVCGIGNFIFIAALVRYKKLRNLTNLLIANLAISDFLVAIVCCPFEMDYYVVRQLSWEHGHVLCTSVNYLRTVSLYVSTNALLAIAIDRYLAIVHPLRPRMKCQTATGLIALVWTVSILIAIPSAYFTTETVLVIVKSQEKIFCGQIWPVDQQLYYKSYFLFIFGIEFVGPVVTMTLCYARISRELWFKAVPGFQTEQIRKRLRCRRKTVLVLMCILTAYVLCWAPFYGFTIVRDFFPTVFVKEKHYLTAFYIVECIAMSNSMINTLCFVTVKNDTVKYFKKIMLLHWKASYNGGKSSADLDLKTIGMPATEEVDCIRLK

Molecular target: HGPRBMY14 polypeptide (novel human G-protein coupled receptor) (human) (UniProt Q8TCW9)
Experiment: phage display, random peptide library

Question: With VDTFFEDIPWGFVLF [Peptide modulator of HGPRBMY14, SEQ ID NO:88 (…)] as the binder, how does the binding read?
Answer: Its binding is “binds”.

Question: Which binding does the source give for VWGNSLIVGRWDVVG [Peptide modulator of HGPRBMY14, SEQ ID NO:91 (…)] here?
Answer: The binding was “binds”.

Question: How did the binding turn out when IGGVGDGLYVVSWDL [Peptide modulator of HGPRBMY14, SEQ ID NO:92 (…)] was run?
Answer: The binding was “binds”.

Question: Which binding does the source give for YFDWTEVPYLMLEEA [Peptide modulator of HGPRBMY14, SEQ ID NO:93 (…)] here?
Answer: The binding was “binds”.

Question: LFVDKWDLSNFWGGG [Peptide modulator of HGPRBMY14, SEQ ID NO:89 (…)] was tested. Which binding did it give?
Answer: The binding was “binds”.

Question: LFLEAWDLSDTPHLY [Peptide modulator of HGPRBMY14, SEQ ID NO:90 (…)] was tested. Which binding did it give?
Answer: The binding was “binds”.
